Consider 66 sequences from PubChem BioAssay AID1347423 (Functional Genomics Laboratory (NCATS/FGL), 2020).

The whole screen tested about 52,000 sequences, of which about 210 (0.4%) were called active.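 How the source made its calls: active means gene whose silencing raises cell survival under the drug, median off-target-corrected z-score across its silencing RNAs 2 or more; inactive means the rest.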 The list shows a part of the results.

The nature of the assay: Resistance to Poly (ADP-Ribose) Polymerase inhibitor: Gene Identification via Genome-wide siRNA Screen. Conditions: mouse BRCA2 R2336H ES cells, olaparib, CellTiter-Glo viability; active compounds read high. The gist of the method:
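Mouse BRCA2 R2336H ES cells were reverse-transfected with siRNA (20 nM final), treated at 48 h with 500 nM olaparib, and read by CellTiter-Glo after 72 h. Scores: MAD-based z per siRNA, median per gene, seed off-target correction.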
Regarding “CCACUCAACUAGAUUAUUGTT against 2310040A13Rik”, the z-score was inactive: -0.321.

In the case of GGAGAUCCUCAUUUGUGUGTT against Ftmt, the z-score is inactive: -0.3.

With “GGAUCAUGGAUGUAUAAAGTT against B430119L13Rik”, the z-score is inactive: -0.0309.

For GAGCCAAAUUAGCAGCUUGTT against Rln3, the z-score is inactive: 0.201.

Turning to GGUCAGAAAGACAAUCGCCTT against Nptx1, the z-score is inactive: 0.477.

With CCGAAAAGUGAUAUGCUUUTT against Akap4, the z-score is inactive: 0.074.

On to GGCAAAGGAUCUCAACGGATT against Msh6, for which the z-score is inactive: -0.917.

With GCCUAGACCUAAGCAUAGCTT against Prpmp5, the z-score is inactive: 0.671.

Consider CGUAUGGAGAUACCACACATT against Hpd, for which the z-score is inactive: -0.103.

Regarding “GGUGACCACACCUUCAAAGTT against D930040M24Rik”, the z-score was inactive: 1.65.

Turning to CCGUCAUCUGGAGAGAAACTT against Dtx3l, the z-score is inactive: -0.691.

As to GGCUGUGUAAGGAAGGGCUTT against Rgmc, the z-score is inactive: -0.357.

Take GGAGAUAGGAGCGAUUGCUTT against Dpys: the z-score was inactive: -1.27.

As for GGAGAUCUACUUGAAGUUATT against Jarid1d, the z-score is inactive: 0.231.

In the case of “GGACGAUGUCUUAUAGAAGTT against 2700059L22Rik”, the z-score was inactive: 0.467.

Consider “GGAACUUUGUCAUCAGUGGTT against 9130423L19Rik”, for which the z-score is inactive: 0.409.

In the case of GGAGCUAGGCUGCUCUAUUTT against Serpina9, the z-score is inactive: 0.0864.

As for CCGGGAAAGAACUCCUAAGTT against Wnt8b, the z-score was inactive: -0.116.

Consider GGUCAAUGUACUACUUCUUTT against Olfr659, for which the z-score is inactive: 1.29.

Regarding UCCAUUUAGUUGGUGGAGUTT against Olfr1303, the z-score is inactive: 0.245.

On to GGAUAUGAAAGUUCUUGAUTT against Akr1c21, for which the z-score is inactive: -0.00542.

For the sequence GGGAAAAUGGCUUAACCGUTT against Siglec10, the z-score is inactive: -0.341.

GGUACUGGAACAAAAGAAATT against Stk38l: the z-score is inactive: -0.514.

Consider GGCUAUUUAUAAGUCCAGUTT against Vdp, for which the z-score is inactive: -0.385.

For CGGAGUUAACAAGAAGUGATT against Loxl4, the z-score was inactive: -0.163.

As for CGACAACCACUUCAACUAUTT against Chn2, the z-score is inactive: -0.263.

On to GGAGAAAGCAGCAAGUACATT against Olig3, for which the z-score is inactive: 0.401.

Take GGAAGAAGUAGCUAAAAACTT against Entpd4: the z-score was inactive: 2.15.

As to GCAUCGCUAAGUCCGUCUUTT against Aqp4, the z-score is inactive: 2.41.

Turning to “CCUCAUGACCCGAAAAGAGTT against 4930424G05Rik”, the z-score was inactive: -1.33.

For CGUGUGGAUUUUAAUAGAATT against AV249152, the z-score is inactive: 0.125.

Regarding GGAAGGCACUCUACUAGGATT against Sfrs14, the z-score is inactive: 0.215.

As for GGAACUGAAUCCAGAAAUGTT against Ldh2, the z-score is inactive: -0.377.

GGACGGAUCUUGUAAAUACTT against Ctsl: the z-score was inactive: -0.367.

As for GGUUCUGUGCAAUUUUUAGTT against Dgcr2, the z-score is inactive: 0.344.

Turning to GCUUUGUGUGUUGGUCUCGTT against Aup1, the z-score is inactive: -2.33.

In the case of GGGUUUGCUUUUGUUGAGUTT against Ppie, the z-score was inactive: -1.09.

In the case of CCUAUGAAGCCAGUAUCCATT against C1r, the z-score was inactive: 0.189.

For the sequence CGUGUUAGAAUAAAAACACTT against Acaa2, the z-score was inactive: -0.232.

In the case of CCAGAUAGGUAAAAAACAATT against Acta2, the z-score is inactive: 0.265.

Take GCAGGUAAAGGCUCUUAUUTT against Rcbtb1: the z-score is inactive: -0.0395.

Take “GGAAGAAAAAACCUUCUGGTT against 1700112P19Rik”: the z-score was inactive: -0.0914.

As to “GGUACCCAUAUGCAGAGGUTT against A830039N20Rik”, the z-score is inactive: -0.45.

With CCACUUGUAGUUACAAAACTT against Odag, the z-score is inactive: -0.673.

Regarding “GCUUGUUCCGGGAAUUAUUTT against 1200009B18Rik”, the z-score was inactive: 0.192.

With “GGGUUUACAAACUACACAUTT against E130112H22Rik”, the z-score was inactive: -0.547.

As to GGUUUCCAGUGCAUACUUUTT against Taf1b, the z-score was inactive: -0.487.

With GGCUUUCUUUGCCAUGACCTT against Copg, the z-score is inactive: -0.491.

Consider GGAAAAUCCCUUGGUGAAATT against Slc5a11, for which the z-score is inactive: 2.74.

With GGAUCCUCACCAAGAUUACTT against Mrps22, the z-score is inactive: 1.17.

GGUCAUUAGUUAUUCCUACTT against Olfr600: the z-score was inactive: -0.776.

For “GGUCACACUUUCUUUGGAATT against D8Ertd325e”, the z-score was inactive: -0.243.

With CCCUGGCAAAUAUCACUGCTT against Dapk2, the z-score was inactive: 0.678.

For GGGUGUACAUUGAAAUUAATT against Epha4, the z-score is inactive: 1.05.

Regarding GGCUGUCAUUGAGUUUGAGTT against Klrc2, the z-score is inactive: 0.947.

As to CCUACGCUAUGCCAUAGACTT against Apobec3, the z-score was inactive: 1.37.

On to GGGAUAGGAAACAUACCAATT against Ptk6, for which the z-score was inactive: -0.561.

Regarding “GGUUGAUAAAGUUUGAGUGTT against 5730410E15Rik”, the z-score was inactive: 0.52.

As to “CCUAAACGUGCACAUUUUATT against 6330512M04Rik”, the z-score is inactive: 0.367.

On to CCUUCUAAACACUUGACUUTT against Ugt2b5, for which the z-score was inactive: 0.523.

With GGAAUUUGUCAAGUUGUAGTT against Pou4f2, the z-score was inactive: -0.11.

Take “GGGCUUUCUUUAUUUUGUGTT against 9230112J07Rik”: the z-score is inactive: -0.593.

On to “GGAUCUGUCUACUUUUCCUTT against 0610007P06Rik”, for which the z-score was inactive: 0.258.

Regarding “GGUAGUUCUAUAGAUACUGTT against 2310015N21Rik”, the z-score was inactive: -0.836.

For the sequence “GGUCUUUGAUGAAGAAGUGTT against 1700027N10Rik”, the z-score was inactive: 0.58.

On to GGCUUCAUUUUAAUAGUGATT against Zdhhc21, for which the z-score is inactive: -0.675.
